The values that follow are results of earlier work, collected in patent US20140314729A1, “NUTRACEUTICAL FORMULATION FOR TREATMENT OF ELEVATED CHOLESTEROL AND CARDIOVASCULAR DISEASE” (Creative Medical Health Inc., priority 2013, published 2014).

For the data set, the system named is rats. The following applies: 80 mg/kg given alone, after 4 weeks.

Each structure is given as a SMILES string.

`CC(C)c1c(C(=O)Nc2ccccc2)c(-c2ccccc2)c(-c2ccc(F)cc2)n1CC[C@@H](O)C[C@@H](O)CC(=O)O` [atorvastatin]: the hepatotoxicity entry is “induced hepatotoxicity”.
